Results as given in US9670197B2, “Small molecule modifiers of the Hec1-Nek2 interaction in G2/M” (The Regents of the University of California, priority 2013, dated 2017).
Some entries share one result that the patent states for a list of compounds.

Test system: Nek2
Test: Nek2 protein level in treated HeLa cells, western blot
Type: cell-based
Conditions: 1 μM, after 18 hours
Method: INH-induced Nek2 degradation; INH-inhibition of Hec1 phosphorylation by Nek2. […] To evaluate whether INH treatment affected cell cycle profile or Nek2 mRNA level, we performed FACS and real-time PCR analysis.
Protein extraction and western blot analysis. The protein extractions and western blot analyses of Examples 4-6 were conducted as follows. Cell extracts were prepared and equal amounts of protein were separated by SDS-PAGE (10% w/v gel) followed by electrophoretic transfer to PVDF membranes (Millipore, Billerica, Mass.). After blocking with 5% w/v powdered non-fat milk, the membrane was incubated with different antibodies for overnight at 4° C. and treated for 1 hr with horseradish peroxidase-conjugated goat anti-mouse IgG and goat anti-rabbit IgG antibodies (GeneTex, Irvine, Calif.). ECL detection of the horseradish peroxidase reaction was performed according to the manufacturer's instructions (Millipore, Billerica, Mass.). Protein signal was measured on a LAS 4000 mini Imaging System (Fujifilm, Valhalla, N.Y.).

SMILES | reduction of Nek2 protein level
Cc1cc(C)c(-c2csc(C(=O)c3ccncc3)n2)c(C)c1 [INH41, (4-mesitylthiazol-2-yl)(pyridin-4-yl)methanone] | more than 95%
Cc1cc(N2CCCCC2)cc(C)c1-c1csc(NC(=O)c2ccncc2)n1 [INH154, N-(4-(2,6-Dimethyl-4-(piperidin-1-yl)phenyl)thiazol-2-yl)isonicotinamide] | more than 95%
